No constants are given. Whether binding was seen depends on the method and setting. Binding seen in cells or lysates may run through a third protein. Some results given as binding are weak or reduced against the parent protein; the word gives no strength.
Tests used:
[1] = molecular target: EZH2 Y726D mutant (homozygous knock-in in Ezh1 KO mouse ESCs) (mouse (endogenous in E14TG2a ESCs)) (UniProt Q61188); experiment: co-IP; immunoprecipitation of EZH2 from 1 mg total protein extract of mouse ESC lines with homemade anti-EZH2 (AC22) cross-linked sepharose beads, 3 to 4 h at 4 °C; S300 buffer (20 mM Tris-HCl pH 8.0, 300 mM NaCl, 10% glycerol, 0.2% NP-40), 5 washes; western blot
[2] = molecular target: EZH2 (wild type, endogenous in WT mouse ESCs) (mouse (endogenous in E14TG2a ESCs)) (UniProt Q61188); experiment: as above

By UniProt entry, the sequences of proteins in these tests, tags left out. Where a name states a change or a piece, a line headed by the entry shows the natural chain unless it says otherwise.
UniProt Q61188: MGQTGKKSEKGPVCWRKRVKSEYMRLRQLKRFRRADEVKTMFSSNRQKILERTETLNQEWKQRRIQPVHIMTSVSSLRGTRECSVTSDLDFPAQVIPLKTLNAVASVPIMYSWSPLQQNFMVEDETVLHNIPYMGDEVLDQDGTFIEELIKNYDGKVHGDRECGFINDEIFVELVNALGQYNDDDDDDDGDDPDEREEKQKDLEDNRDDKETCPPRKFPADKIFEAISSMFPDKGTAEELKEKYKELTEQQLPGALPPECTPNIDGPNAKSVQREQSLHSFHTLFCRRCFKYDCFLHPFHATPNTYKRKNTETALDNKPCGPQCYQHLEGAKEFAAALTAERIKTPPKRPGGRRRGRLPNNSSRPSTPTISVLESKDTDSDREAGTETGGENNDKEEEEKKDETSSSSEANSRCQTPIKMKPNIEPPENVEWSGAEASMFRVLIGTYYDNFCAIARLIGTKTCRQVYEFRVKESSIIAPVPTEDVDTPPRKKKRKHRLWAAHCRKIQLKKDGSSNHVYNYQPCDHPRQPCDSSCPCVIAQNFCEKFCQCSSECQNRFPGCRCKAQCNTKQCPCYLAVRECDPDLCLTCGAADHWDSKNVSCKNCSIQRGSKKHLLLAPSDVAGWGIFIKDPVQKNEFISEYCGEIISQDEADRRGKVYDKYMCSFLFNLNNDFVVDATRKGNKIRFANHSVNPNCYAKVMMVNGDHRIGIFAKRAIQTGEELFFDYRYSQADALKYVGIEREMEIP
UniProt Q921E6: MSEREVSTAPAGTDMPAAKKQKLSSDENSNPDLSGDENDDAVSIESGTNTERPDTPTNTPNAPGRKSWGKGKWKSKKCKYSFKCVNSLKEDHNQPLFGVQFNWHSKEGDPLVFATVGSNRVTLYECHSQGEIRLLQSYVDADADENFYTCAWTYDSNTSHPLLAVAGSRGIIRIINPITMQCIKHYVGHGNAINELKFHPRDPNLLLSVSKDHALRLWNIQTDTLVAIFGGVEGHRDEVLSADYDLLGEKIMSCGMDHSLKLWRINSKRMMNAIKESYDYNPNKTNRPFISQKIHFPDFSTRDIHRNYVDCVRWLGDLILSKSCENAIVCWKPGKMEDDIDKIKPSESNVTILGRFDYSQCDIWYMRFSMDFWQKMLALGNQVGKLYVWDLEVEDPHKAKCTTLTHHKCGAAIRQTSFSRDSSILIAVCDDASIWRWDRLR
UniProt Q80U70: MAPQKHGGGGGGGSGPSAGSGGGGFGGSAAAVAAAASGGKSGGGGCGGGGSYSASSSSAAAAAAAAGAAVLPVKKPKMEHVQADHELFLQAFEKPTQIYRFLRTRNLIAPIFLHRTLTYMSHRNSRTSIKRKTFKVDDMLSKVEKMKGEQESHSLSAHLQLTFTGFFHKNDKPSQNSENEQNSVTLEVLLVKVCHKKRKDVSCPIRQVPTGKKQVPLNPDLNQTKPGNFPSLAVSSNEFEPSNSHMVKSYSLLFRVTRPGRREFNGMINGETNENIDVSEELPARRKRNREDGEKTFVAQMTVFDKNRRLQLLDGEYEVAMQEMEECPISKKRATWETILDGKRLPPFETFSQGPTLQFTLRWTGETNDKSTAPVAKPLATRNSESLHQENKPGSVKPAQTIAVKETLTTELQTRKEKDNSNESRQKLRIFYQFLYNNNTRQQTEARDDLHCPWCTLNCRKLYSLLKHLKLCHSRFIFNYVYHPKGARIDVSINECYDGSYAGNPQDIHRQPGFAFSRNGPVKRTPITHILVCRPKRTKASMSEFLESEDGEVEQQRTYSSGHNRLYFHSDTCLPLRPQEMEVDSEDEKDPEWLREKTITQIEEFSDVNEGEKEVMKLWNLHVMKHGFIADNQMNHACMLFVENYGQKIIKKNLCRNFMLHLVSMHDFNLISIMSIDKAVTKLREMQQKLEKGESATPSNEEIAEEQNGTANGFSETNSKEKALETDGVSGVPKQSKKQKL

Row | binding [1] | binding [2] | Substance
1 | binds | binds | EED (from UniProt Q921E6 1-441)
2 | binds | – | SUZ12 (from UniProt Q80U70 1-741)
